# In EP4613775A1:
# No constants are given. Whether binding was seen depends on the method and setting. Some results given as binding are weak or reduced against the parent protein; the word gives no strength.
# B1: recombinant antibody P1-F6 (antibody, V domains shown)
# VH: QVPLKESGPALVKPTRTLTLTCTFSGFSLSTNGVSVGWIRQPPGKALDWLALIYWNDDKRYSPSLKNRLTITKDTSKNLVVLRMTNMDPVDTATYYCAHRPIASSRDGFDYWGQGTLVTVSS
# VL: DIQMTQFPSTLSASVGETVTISCRASQSVSGWLAWYQQKPGKAPKLLMYKASALENGVPSRFSGSGSGTEFTLTISSLQPDDFATYYCQQYNGFPFTFGPGTKVDIN
# Target: T1, kinesin family member C3 (human) (UniProt Q9BVG8)
# T1 sequence (looked up): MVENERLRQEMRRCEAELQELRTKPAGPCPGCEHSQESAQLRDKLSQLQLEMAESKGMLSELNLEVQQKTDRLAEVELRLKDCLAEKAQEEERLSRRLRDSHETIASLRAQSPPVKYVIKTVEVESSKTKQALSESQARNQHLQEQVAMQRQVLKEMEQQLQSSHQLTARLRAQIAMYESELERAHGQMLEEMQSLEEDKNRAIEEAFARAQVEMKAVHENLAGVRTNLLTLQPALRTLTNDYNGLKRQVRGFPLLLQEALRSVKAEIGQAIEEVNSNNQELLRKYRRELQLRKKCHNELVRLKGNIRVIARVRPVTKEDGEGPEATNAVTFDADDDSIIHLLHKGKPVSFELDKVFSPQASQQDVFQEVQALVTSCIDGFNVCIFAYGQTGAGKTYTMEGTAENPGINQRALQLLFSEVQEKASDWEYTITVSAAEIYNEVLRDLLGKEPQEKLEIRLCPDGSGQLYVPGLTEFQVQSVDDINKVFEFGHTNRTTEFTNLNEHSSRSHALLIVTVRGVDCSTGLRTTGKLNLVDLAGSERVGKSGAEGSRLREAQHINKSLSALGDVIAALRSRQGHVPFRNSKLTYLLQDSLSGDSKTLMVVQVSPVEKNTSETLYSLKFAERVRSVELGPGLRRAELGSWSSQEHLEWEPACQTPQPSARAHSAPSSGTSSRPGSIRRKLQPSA
# Assay: custom ELISA
binder,measurement,value
B1,binding,binds
